Publication PMC8392593
No constants are given. Whether binding was seen depends on the method and setting. Some binding calls cover weakened binding; strength is not graded here. Where a sequence is shown, tags or fusion partners need not be part of it.

Target: MuRF1 in fusion with the binding domain of GAL4 (pBridge, MCS I) (rat) (UniProt Q91Z63)
Experiment: two-hybrid; Matchmaker Gold yeast two-hybrid; MuRF1 alone as GAL4 binding-domain fusion, preys in pGADT7; growth of diploid clones on -LTH + Aureobasidin A + 3-AT followed over 21 days

B1: MuRF3 in pGADT7 (GAL4 activation domain fusion) (enzyme, UniProt Q9ERP3 1-366)
chain: MNFTVGFKPLLGDAHNMDNLEKQLICPICLEMFSKPVVILPCQHNLCRKCANDVFQASNPLWQSRGSTTVSSGGRFRCPSCRHEVVLDRHGVYGLQRNLLVENIIDIYKQESSRPLHAKAEQHLMCEEHEDEKINIYCLSCEVPTCSLCKVFGAHKDCEVAPLPTIYKRQKSELSDGIAMLVAGNDRVQAVITQMEEVCQTIEDNSRRQKQLLNQRFETLCAVLEERKGELLQALAREQEEKLQRVRGLIRQYGDHLEGSSKLVESAIQSMEEPQMALYLQQAKELINKVGAMSKVELAGRPEPGYESMEQFSVSVEHVAEMLRTIDFQPGAAGDEEDDDMALDGEEGNAGLEEERLDVPEGSGLH
binding: binds
